Taken from: PubChem BioAssay AID686937 (Drosophila RNAi Screening Center, 2013)

Test: 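Genes in the fly needed for secretion of protein constitutively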 (primary screen)
System: Drosophila S2 cells expressing secreted horseradish peroxidase
Reagent: long dsRNA against Drosophila genes
Duration: about 5.5 days (5 days dsRNA, then 12 h reporter induction)
Challenge: reporter expression induced after 5 days of dsRNA, read 12 h later; inducer not stated
Measurement: 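After 5 days of dsRNA and 12 h of reporter induction, medium peroxidase read by chemiluminescence and scored as per-plate z-score; higher values mean more reporter released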
Reading the numbers: z-score: higher = more reporter secreted into medium
In all, the deposit lists about 23,000 reagents; shown is a random part of those with a known target gene and a result. 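Reduced-secretion tags in replicate 1 do not always agree with the z-scores; no criterion for assigning the tags was given.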 Reagents against one gene are numbered here. Not stated in the record: the amount of reagent.

no.	Gene	dsRNA no.	z-score, replicate 1	z-score, replicate 2	z-score, replicate 3	z-score, replicate 4	phenotype, replicate 1
1	CG33978	1	0.8	0.05			
2	CG6067	1	0.16	0			
3	obst-H	1	0.61	0.47			
4	obst-H	2	0.42	0.39			
5	Antp	1	0.22	-0.61			
6	Ca-beta	1	0.03	0.12			
7	Ca-beta	2	-0.08	0.11			
8	Ca-beta	3	0.49	0.06	0.14	0.08	
9	Ca-beta	4	0.5	-0.14			
10	Gr28b	1	0.27	0.29			
11	Gr28b	2	0.29	0.12			
12	Usp30	1	-0.15	-0.12			
13	CG6495	1	0.49	0.43			
14	CG30075	1	-0.13	0.24			
15	CG14569	1	0.41	0.46			
16	Trf5	1	0.19	0.52			
17	CG10710	1	0.16	0.35			
18	CG32112	1	0.1	0.38			
19	ScpX	1	0.13	0.18			
20	CTCF	1	0.49	0.25			
21	Obp28a	1	0.62	0.43			
22	CG12679	1	0.31	0.23			
23	kri	1	0.6	0.46			
24	CG15233	1	0.3	0.31			
25	CG3040	1	0.07	0.32			
26	CG16957	1	0.49	0.44			
27	CG43707	1	0.02	0.18			
28	CG43707	2	0.31	0.5			
29	CG43707	3	0.93	-0.06			
30	Nnf1b	1	-0.5	-0.71			reduced secretion
31	BRWD3	1	-1.15	-0.58			
32	BRWD3	2	-0.39	-0.93			
33	CG30259	1	0.02	0.05			
34	CG30259	2	0.08	0.04			
